The results in this text go back to PubChem BioAssay AID1508600 (Functional Genomics Laboratory (NCATS/FGL), 2020).

Among all 53,000 sequences or so, about 3,700 (7%) were called active.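 Rule for the calls: active = gene knockdowns whose robust z-score for IL-1 alpha signal is at least 2 or at most -2, so actives lie on both sides; inactive = the rest.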 Some of the results follow.

The nature of the assay: Components of the Cytosolic LPS Sensing Pathway: Gene Identification via Genome-wide siRNA Screen.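 Note: robust z of the log signal after scaling to non-targeting control siRNA wells of the plate.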 The conditions noted are these: RAW264.7 macrophages, IL-1a HTRF, actives lie on both sides, screened at 100 nM (by protocol), cells primed 5 h with Pam3CSK4 first. A digest of the protocol:
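IL-1a HTRF of supernatants after 24 hour LipidA transfection of Pam3CSK4-primed (5 hours) RAW264.7 cells, 48h post-siRNA transfection (100 nM). Scores: percent of plate negative-control median, then log-based robust z-score.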
With CCACCACAGAAUGCAUUACTT against Vmn1r64, the z-score was inactive: 0.102.
Regarding GGAGGACAAUGGCUAAUAGTT against Fitm2, the z-score is inactive: 0.7.
To GGAUGUUGAUUUUCAUGGUTT against Grpel2 belongs inactive: 1.13.
The result for GCUUCUAACUACACAGACUTT against Cd63 reads inactive: -0.216; that for CCAGUUUGUACCAUUAUAGTT against Sspo, inactive: 0.309.
The result for GGACACAAAGAAGAAGAGGTT against Tarsl2 reads inactive: 0.707.
Take CCAGCAAAUGCAGCACAUCTT against Vmn1r180: the z-score was inactive: 0.273.
The result for GGAUAACUGUAACAGCCCGTT against Ly6g6c reads active: -2.12; that for GGAAGAGGUGGAGUUUGUGTT against Pla2g4e, inactive: -1.19.
Regarding “GCCUGUGGGAACUGACUAATT against 4931406H21Rik”, the z-score was inactive: -0.727.
For GGUCCUGAAGAUACCAUCUTT against Olfr1377, the z-score was inactive: -0.404.
The result for GGAGGUGAAACCAUAAAAATT against Fubp1 reads inactive: 0.388.
CCAGUUUCAGAUCAGAUUATT against Zfp747: the z-score was inactive: 0.729.
To CGUAAUCAGUGCAGUAAACTT against Zfp781 belongs inactive: -0.118; to GCUAUAGACAAGGAGAGUATT against Galnt6, inactive: 0.62; to GGUGCUGUUCCAUUUCUAUTT against Dnaaf6, inactive: -0.842.
To GGAUCAUAAAGUCAAAGCUTT against Vmn1r185 belongs inactive: -0.302; to CCAUCCUUGUUUUGUUAAUTT against Fas, inactive: 0.389.
The result for CGCGAGUUUUUCUUUAAUGTT against Hoxd11 reads inactive: 0.952.
Regarding GCAGAGGCUCGUCCAUAUATT against Dnpep, the z-score is inactive: -0.205.
The result for GGGAACCUUACUGUGUUAUTT against Gpr85 reads inactive: 0.477; that for GGACGUGUGGCUGUUGACATT against Sdc1, inactive: -0.138.
The result for GGAAUCUCGGAGGAAAACUTT against Hyou1 reads inactive: 1.99; that for GGCCUGCUAUCGUUCAGAATT against Mkln1, inactive: -0.698; that for GGUAUUUGAUUUCACCUUUTT against Akr1a1, inactive: 0.895.
To GGUCAACAUCACCUUCAAUTT against Scarb1 belongs inactive: -0.864.
Turning to GGGCUUGGAGAGAAAACCATT against Snupn, the z-score was inactive: -0.773.
The result for GGGUUGAAAUCACUAUUGATT against Map10 reads inactive: 1.34.
The result for GCUCAUGGGUAUGAUCAAUTT against Sox5 reads inactive: -0.996; that for CCUGCGUACGAAUUAAAGGTT against Pih1d2, inactive: -0.108.
To GGAUACAUGUGGUGCCAAUTT against Banf1 belongs inactive: -0.529.
GGCUUACCUGAACUUUCUGTT against Degs2: the z-score is inactive: -0.381.
The result for GGAUGCUCAUGCUAAGCAGTT against Krt7 reads inactive: 0.547; that for CCUGAUAAUGAAUAACUCGTT against Stard3nl, inactive: 0.19; that for CCUCGGAUUGUUCAGACCUTT against Plxna4, inactive: 0.141.
To CGAUGCAACUGGAAAACUCTT against Riok1 belongs inactive: -0.911.
To GGCAAAAUCGUGAAAAUUCTT against Vwf belongs inactive: -0.144; to GGGCUUCACCAUUAUCAUUTT against Ercc2, inactive: 0.583.
As for CCCUCUCCAAUAUUCUUUATT against Olfr1116, the z-score is inactive: 0.943.
The result for GCUGCACGGUGAGUUUAAATT against Gpm6b reads inactive: 1.21; that for CGAGACUAACCUUUAGUUATT against Tmem71, inactive: 1.19.
Consider GGAGAGAAAGAAUUUCAUCTT against Chordc1, for which the z-score was inactive: 0.185.
The result for CGUAUGAGUGCAAUACUAATT against Pcmtd1 reads inactive: 1.32; that for GGCAAGUGCCCAAGUUUGUTT against Ifi35, inactive: 1.08; that for GGCAAAUUCUACUACAAGATT against Pms2, inactive: 0.117.
The result for GGAAGAUCAUAGCAAAAGGTT against Casp3 reads inactive: -1.01.
To GGAGUUGGCCAUGUGGAAATT against Wdr45b belongs inactive: 0.945; to “GGAGAAGAGCAUAAAUACATT against 2410137M14Rik”, inactive: 1.16.
Regarding CCUAAUCUGGUAUACCAGATT against Slc7a1, the z-score was inactive: 0.593.
In the case of CUCUAGUGUUACACUUAUUTT against Tefm, the z-score is active: 2.83.
The result for GGGCAUAUGACUGAAACACTT against Vmn1r45 reads inactive: -0.686; that for GCCAUCUUCGGUCAACUCUTT against Olfr969, active: -2.87.
The result for GGUUCAACAAAACAAAGAGTT against Steap1 reads inactive: -0.209.
The result for GGCGAGAAACCAUACCUGUTT against Glis1 reads inactive: 0.24.
With GGUGUUUGAGUCAACAGACTT against Oard1, the z-score was active: -2.1.
As for GGAUGUCAAUGAGUUUGCATT against Clstn2, the z-score is inactive: -0.16.
To GGUGUGACCAUCAAGCAUGTT against Nek8 belongs inactive: -0.386.
To GGACAAGAAAAAGGAUUAGTT against Clptm1 belongs inactive: -0.414.
“GGAAUAGAAGCUUUCACUGTT against A630023P12Rik”: the z-score was inactive: 0.895.
As for GGCACAAGAACCAUUUCUGTT against Nfe2l3, the z-score is inactive: -1.84.
Consider CGAUGGAAGCACUUAUUUATT against Lep, for which the z-score is inactive: 0.984.
The result for CCACUUACGAGGGCAUUUUTT against Atxn2l reads inactive: -0.596; that for CCGACAAAUAAAGGCUUUATT against Ddx52, inactive: 0.486; that for GGAAGCAUCUGAUGUCAUUTT against Erp44, inactive: 0.711.
For GGUUCAUUCGAUCUCAGACTT against Opalin, the z-score was inactive: -0.505.
GCAUGUCAGACAAUAAAGUTT against Mpped1: the z-score is inactive: 0.412.
The result for CCUUAUUGGGUCAUAAGCATT against Rasl10a reads inactive: -0.825.
The result for GGAGUGUGCCCUGAAAGAUTT against Psrc1 reads inactive: -0.215; that for GCCGAUAGCGGGAUUUAUUTT against Itsn1, inactive: 0.681.
With GGUAACAUGGCAGAUUUUATT against Aif1l, the z-score is inactive: 0.618.
To GGUGGUCCACGAAUUCAUUTT against Fermt2 belongs inactive: -1.41; to GGUCAGGUUGAGGACAUAATT against Vwa1, inactive: 1.28; to CCUUUUUUCAUGUUAAUGGTT against Lmod1, inactive: 1.3.
The result for GGUCGACAUUUUGAAGGAGTT against Fthl17e reads active: -2.63; that for GGUCAUCUCCAGAUACCCATT against Arhgap45, inactive: -0.604; that for GCCACCGUAUAUUUUUAAUTT against Castor2, inactive: -0.466.
In the case of GAGUGGGAUUAUGUUCAAUTT against Krtap19-3, the z-score is inactive: 0.664.
The result for GCCAUUGACUGUACAGGUUTT against Taar4 reads inactive: 0.74.
The result for GGACUGAACCGUUUUAAAGTT against Fmo3 reads inactive: -0.317; that for GAAGUCAUGGUUCCUACCATT against Clcn1, inactive: 0.577.
In the case of GGCAAGGUAUCCUCACUUGTT against Arpp19, the z-score is inactive: -0.0817.
To CCGAAAAAUGUCCAAAUCGTT against Vsx2 belongs inactive: 1.63; to GGUGGUAUCACCUCUAUCATT against Cfap52, active: -2.49; to GGAAGCUGAUGAAUAUGUUTT against Acly, inactive: 0.719.
To GCUUAACGGGAGUUAUGAGTT against Capn9 belongs inactive: -0.478.
To CCGGGUGCUGUUCUAUAAGTT against Pecam1 belongs inactive: -0.827; to GGAGAUGAUACAUAAUCUATT against Psmd12, inactive: -0.0292.
Turning to GGAUAUACCAUCAAUGUACTT against Hdac6, the z-score was inactive: 0.239.
To CCUUAGUUAGAAAUGUUGATT against Xk belongs inactive: -0.33; to CCUACUUCCGAGGUUUCUUTT against Ifnz, inactive: -0.493; to GCCUGCUAGAGGAUUUCAATT against Cep128, inactive: 0.404.
Consider CCUGUACAAUUGACCUACATT against Serpinb1c, for which the z-score was inactive: 0.0846.
As to CGACAAAAUUACCAGGUCATT against Hmx3, the z-score was inactive: -0.667.
The result for GGGCUAUGAGGUAACCACUTT against Ahcy reads inactive: 1.87; that for GGAACCAGUGCUGCAUUUATT against Defb41, active: -2.05.
Consider CGUGACUGCACUUUAAGUATT against Pirb, for which the z-score was inactive: 0.373.
To GCUGGUUGUAGUAAAACAGTT against Resf1 belongs inactive: -1.29.
To GCGGGAGCUACACACGAUUTT against Dolpp1 belongs inactive: 0.386.
To GGACUUCACCUACAGCAAGTT against Nr1h2 belongs inactive: 0.168.
With GGACCAGAGGUUAAUUUAUTT against Herpud1, the z-score was inactive: -0.926.
The result for GGCUGUAAAACCCAAUCUATT against Top3a reads inactive: 0.509.
To GCUGGUGAAGAGCAUAUUCTT against Tfcp2 belongs inactive: -0.0229; to GGUGGAGGAACGAAAGUUUTT against Ribc1, inactive: 0.625.
To GGCUUCAAGGACUUUACAATT against Mefv belongs inactive: 1.62.
With GGCCCAGUCUUCUCAAAAATT against Cers2, the z-score was inactive: 0.249.
The result for CCGGUUGCUAGGCUAAACATT against Dcaf7 reads inactive: 0.33; that for GGAAAGAACAACAAAGGAGTT against Snx9, inactive: 0.84.
